In US10912816B2, “Obesity-related genes and their proteins and uses thereof” (THE TRUSTEES OF COLUMBIA UNIVERSITY IN THE CITY OF NEW YORK, priority 2010, dated 2021):
Entries after “also recorded” stand apart in the source; their conditions may differ. Part of at least one peptide drawing is inferred or uncertain, most often the ends.

Assay: Body weight and 24 hour feeding behavior in DIO rats (BioDaq Food Intake Monitoring System)
Assay type: in vivo
Details: for meal size and duration / temporal feeding pattern and meal frequency: DIO rats on treatment, BioDaq recording; for body weight (in words): DIO rats, daily sc injections (FIG. 22B)
Procedure: Obese adult female Wistar rats (n=4/group) received single daily injections (sc) of vehicle or Spexin (35 μg/kg BW). Body weights and food intake were measured daily. Average daily food intake (FIG. 22A) and body weight (FIG. 22B) for each group was recorded for each 24 hr period. 24 hr food intake was reduced in the Spexin treated animals (dark circles) by Day 3. […] This effect persisted well beyond the immediate treatment period, and was apparent out to Day 7.
A more detailed analysis of hourly feeding behaviors, including 1) number of “meals” during a 24 hr light/dark cycle, and 2) meal duration and incidence were continuously recorded by a BioDaq Food Intake Monitoring System (FIG. 23). Pre-treatment baselines (FIG. 23A), on-treatment responses (FIG. 23B), early (FIG. 23C) and late (FIG. 23D) “wash-out” periods are presented. Horizontal white lines indicate “lights on”. As expected, the vast majority of feeding occurs during “lights off” since rats are nocturnal feeders. […] What was reduced was the meal size and duration (both smaller). […] Without being bound by theory, Spexin is a potent natural satiety-inducing agent.
Obese (DIO) adult female Wistar rats (n=4/group) received single daily injections (sc) of vehicle or Spexin (35 μg/kg BW). Individual body weights and food intake were measured and recorded daily, and the average food intake and body weight for each group was recorded for each 24 hour period. For a more detailed analysis of hourly feeding behaviors, number of feeding events or “meals” during a 24 hour light/dark cycle, and frequency and durations of individual meals were continuously recorded via a BioDaq Food Intake Monitoring System (New Brunswick, N.J.).

CSCC[C@H](NC(=O)[C@H](C)NC(=O)[C@H](CCC(N)=O)NC(=O)[C@@H]1CCCN1C(=O)[C@@H](NC(=O)[C@H](Cc1c[nH]c2ccccc12)NC(=O)[C@@H](N)CC(N)=O)[C@@H](C)O)C(=O)N[C@@H](CC(C)C)C(=O)N[C@@H](Cc1ccc(O)cc1)C(=O)N[C@@H](CC(C)C)C(=O)N[C@@H](CCCCN)C(=O)NCC(=O)N[C@@H](C)C(=O)N[C@@H](CCC(N)=O)C(N)=O [Spexin, NWTPQAMLYLKGAQ-amide]
meal size and duration: both smaller
temporal feeding pattern and meal frequency: remained normal
meal size and duration (listed as Peptide A (Spexin)): reduced meal size and duration
temporal feeding pattern and meal frequency (listed as Peptide A (Spexin)): without altering meal patterns
body weight (in words): reduction in body weight; also recorded: reduced body weight
body weight (in words) (listed as spexin): reductions
